PubChem BioAssay AID602196, INSERM – 2012

Assay: 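Genes whose knock-down alters cisplatin killing of lung cancer cells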
Cell system: human A549 lung cancer cells
Reagent: siRNA pair against human genes
Time to read-out: 48 h transfection before cisplatin; time from cisplatin to read-out not stated
Conditions: cisplatin at a dose killing half of control-siRNA cells; exact dose and duration not given
Measurement: 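Cisplatin cell death as a shift from the 50% death seen with control siRNA; siRNAs toxic or growth-blocking alone scored 0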
Scale: two-siRNA summed score (-2 to +2): higher = both siRNAs protect from cisplatin killing; -2 means both sensitise; mean protection from cisplatin (shift in death) and protection from cisplatin (shift in death), siRNA C and protection from cisplatin (shift in death), siRNA D: higher = protection from cisplatin killing
Active means: 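siRNAs harmful alone (LDH or WST-1) get 0; others get +1 for less and -1 for more cisplatin killing; genes are active when the two siRNAs give the same sign, summing to ±2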
Calls: active = both siRNAs shift cisplatin killing the same way; inactive = no consistent shift, or siRNA harmful alone
The deposit covers about 23,000 reagents; below is a random part of them. Over the whole deposit, 455 (2%) got an active call. 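Active includes both protection and sensitisation; some change values fall well beyond the stated -50 to +50 range.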 Not stated in the record: the amount of reagent.

The first 2 records, to show the layout:
| gene | PubChem SID | two-siRNA summed score (-2 to +2) | mean protection from cisplatin (shift in death) (%) | protection from cisplatin (shift in death), siRNA C (%) | protection from cisplatin (shift in death), siRNA D (%) | outcome |
| --- | --- | --- | --- | --- | --- | --- |
| ZBTB4 | SID131506387 | 0 | -1.6 | -1.3 | -1.9 | inactive |
| LOC389819 | SID131511656 | 0 | 4.6 | 2 | 7.2 | inactive |

Main list, repeating the preview:
| gene | PubChem SID | two-siRNA summed score (-2 to +2) | mean protection from cisplatin (shift in death) (%) | protection from cisplatin (shift in death), siRNA C (%) | protection from cisplatin (shift in death), siRNA D (%) | outcome |
| --- | --- | --- | --- | --- | --- | --- |
| ZBTB4 | SID131506387 | 0 | -1.6 | -1.3 | -1.9 | inactive |
| LOC389819 | SID131511656 | 0 | 4.6 | 2 | 7.2 | inactive |
| TUBA1B | SID131506089 | 0 | -2 | -2.1 | -2 | inactive |
| CFAP52 | SID131506507 | 0 | -1.4 | -7.5 | 4.7 | inactive |
| BBLN | SID131505266 | 0 | -3.4 | -13.9 | 7 | inactive |
| KCND2 | SID131512351 | 0 | 5.4 | 9 | 1.7 | inactive |
| TOB1-AS1 | SID131507799 | 0 | 0.3 | 5.8 | -5.3 | inactive |
| SEC13 | SID131519846 | 1 | 7.7 | 16.1 | -0.6 | inactive |
| PARP14 | SID131503685 | 0 | -8.5 | -5.5 | -11.5 | inactive |
| LOC201501 | SID131516938 | 0 | 12 | 12.6 | 11.5 | inactive |
| LHX9 | SID131513738 | 0 | 7 | 2.6 | 11.3 | inactive |
| HNF4A | SID131507474 | 0 | -0.1 | 3.2 | -3.4 | inactive |
| EBF1 | SID131509388 | 0 | 2.1 | -14.2 | 18.4 | inactive |
| LOC401466 | SID131520870 | 1 | 11.4 | 0.9 | 21.9 | inactive |
| CDON | SID131515326 | 0 | 9 | 16.3 | 1.7 | inactive |
| LOC286140 | SID131516970 | 0 | 12.1 | 4.4 | 19.8 | inactive |
| LINC01098 | SID131508549 | 0 | 1.2 | 4.1 | -1.8 | inactive |
| SEM1 | SID131514873 | 0 | 8.4 | 1.7 | 15.1 | inactive |
| SEM1 | SID131517712 | 0 | 14.5 | 24 | 5 | inactive |
| RETN | SID131500879 | -1 | -14.8 | -3.5 | -26.2 | inactive |
| FETUB | SID131502146 | -1 | -5 | 4.5 | -14.4 | inactive |
| GUCY2D | SID131500434 | -1 | -32.3 | -25 | -39.6 | inactive |
| PRDM10-DT | SID131522514 | 1 | 19.4 | 11.4 | 27.4 | inactive |
